Measurements from PubChem BioAssay AID1439 (NMMLSC, 2008).
About 770 (0.35%) of roughly 220,000 compounds were called active. Inconclusive results, whose numbers are uncertain, are shown with a selection of clear calls. No stated cut-off is given here; in the data, active means binding response below about 49% or above about 150%; inconclusive means no clear call, values can overlap the other calls; inactive means in between.

Chains of the proteins cited; added tags and fusions are not shown.
UniProt P09471, whole entry, looked up: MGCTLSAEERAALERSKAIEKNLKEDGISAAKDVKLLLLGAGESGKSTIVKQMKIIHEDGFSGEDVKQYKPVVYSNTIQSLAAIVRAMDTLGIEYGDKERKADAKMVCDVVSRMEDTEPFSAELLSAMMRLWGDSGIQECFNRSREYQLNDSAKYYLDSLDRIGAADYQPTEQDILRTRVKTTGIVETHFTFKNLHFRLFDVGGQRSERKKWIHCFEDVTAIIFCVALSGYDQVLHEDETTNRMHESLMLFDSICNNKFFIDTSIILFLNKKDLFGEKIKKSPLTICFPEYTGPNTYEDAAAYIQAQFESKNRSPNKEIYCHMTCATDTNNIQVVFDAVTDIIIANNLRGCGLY

The compounds below were run against Guanine nucleotide-binding protein G(o) subunit alpha (Homo sapiens) (UniProt P09471) (assay: RGS7-Galphao binding modulators, primary screen, biochemical, multiplexed bead flow cytometry (AID 1439;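 further: fluorescent Galphao held in activated GDP-AlF4 state binding bead-coupled RGS7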)). Settings: at 10 µM, actives lie on both sides.

Row | Structure (SMILES) | binding response (% of control)
1 | COc1cc2[nH]c(=S)nc(Nc3ccc(NC(C)=O)cc3)c2cc1OC | inconclusive: 102%
2 | O=C(C1CCC1)N1CCc2cc(S(=O)(=O)NCc3ccccn3)ccc21 | inactive: 104%
3 | O=S(=O)(NC1=NCCCCC1)c1ccc(Cl)cc1 | inconclusive: 93.8%
4 | COc1ccccc1N1C(=O)C=C(Sc2nc(C)cc(C)n2)C1=O | inconclusive: 1.77%
5 | O=C(Nc1ccccc1)Nc1snnc1C(=O)Nc1cccc(O)c1 | active: 16%
6 | O=C(NCc1cccc(Cl)c1)C1CCCO1 (stereo not given) | inconclusive: 78.5%
7 | COc1cc(/C=C2\SC(=S)N(NC(=O)c3cccnc3)C2=O)ccc1O | inconclusive: 85%
8 | Cc1ccc(-c2nn(-c3ccccc3)cc2CNCc2ccccc2)cc1 | inconclusive: 98.2%
9 | O=C(C[n+]1ccc(Cc2ccccc2)cc1)Nc1ccccc1 | inconclusive: 76.9%
10 | COC(=O)c1ccccc1NC(=O)CSc1nnc(-c2cccnc2)n1N | inactive: 107%
11 | CCCCCN(C(=O)NC(=O)Nc1cccc(C)c1C)S(C)(=O)=O | inconclusive: 98.5%
12 | COc1ccc(CC(=O)Nc2ccccc2N2CCCCC2)cc1OC | inconclusive: 109%
13 | C=CCn1nc2n(c1=O)-c1ccccc1SC2 | inconclusive: 149%
14 | O=C(CN1C(=O)c2ccccc2S1(=O)=O)c1ccc(F)cc1 | inconclusive: 106%
15 | CCOC(=O)c1c(-c2ccccc2)oc2ccc(OC(C)C(=O)O)cc12 (stereo not given) | inconclusive: 96.1%
16 | Cc1cccn2c(=O)c(/C=N/O)c(Nc3ccccc3F)nc12 | inconclusive: 54.7%
17 | COc1ccc2oc3cc(C)[n+]([O-])c(-c4ccc(Cl)cc4)c3c2c1 | inactive: 52.3%
18 | CCCn1c(=O)c(C(=O)N/N=C/c2ccc(F)cc2)c(O)c2ccccc21 | inconclusive: 25.8%
19 | CCc1cc(C(=O)Cc2nc3ccccc3s2)c(O)cc1OCC(=O)O | inconclusive: 21.7%
20 | Cc1cccc(OCCC(=O)OCC(=O)N2CCc3ccccc32)c1 | inactive: 116%

Row | Structure (SMILES) | binding response (% of control)
21 | CCOC(=O)C1CCCN(Cc2nc3ccc([N+](=O)[O-])cc3c(=O)n2-c2ccc(OC)cc2OC)C1 (stereo not given) | inconclusive: 100%
22 | COc1ccc(NC(=S)NC2CC3CCCC(C2)N3C2CC2)cc1 (stereo not given) | inconclusive: 117%
23 | Cc1sc(NC(=O)CSc2nc(N)cc(N)n2)c(C#N)c1C | inconclusive: 108%
24 | CC(C)c1cc(C(=O)N/N=C/c2c[nH]c3ccccc23)n[nH]1 | inconclusive: 92%
25 | CC(=O)Nc1ccc(/C=N/N2C(=O)NC(C)(c3ccc(OC(F)F)cc3)C2=O)cc1 (stereo not given) | inconclusive: 108%
26 | Cc1cc(C(=O)Nc2nc(-c3ccccn3)cs2)ccc1[N+](=O)[O-] | inconclusive: 78.1%
27 | COc1ccc(/C=C2\CCn3c2nc2cc(C(=O)O)ccc2c3=O)cc1OC | inconclusive: 121%
28 | O=C(Nc1nccs1)C(c1ccccc1)N1CCCCC1 (stereo not given) | inconclusive: 93.7%
29 | CCN(CC)C(=O)Oc1c(Cl)cc(Cl)c2cccnc12 | inconclusive: 103%
30 | O=C(NCCCn1ccnc1)C1CC(c2ccccc2Cl)=NO1 (stereo not given) | inconclusive: 58.1%
31 | Cc1cc(-c2csc(N)n2)c(C)n1-c1ccc(Cl)c(Cl)c1 | inactive: 106%
32 | Cc1ccc(C)c(S(=O)(=O)Nc2ccccc2C(=O)Nc2cc(C)on2)c1 | inactive: 107%
33 | Nc1nc(N)c(N=Nc2ccc(Cl)cc2)c(=O)[nH]1 | inconclusive: 106%
34 | C=CCNC(=O)c1ccc2c3n(nc2c1)-c1ccccc1CO3 | inconclusive: 115%
35 | CCc1cccc(CC)c1NC(=O)COC(=O)C1(c2ccc(Cl)cc2)CCCC1 | inactive: 99%
36 | O=C(COC(=O)[C@@H]1CC(O)CN1S(=O)(=O)c1ccc2c(c1)OCCO2)NCc1ccc(F)cc1 (stereo not given in full) | inconclusive: 103%
37 | CC(C)CNC(=O)c1cnn2c(C(F)(F)F)cc(C(F)(F)F)nc12 | inconclusive: 95.6%
38 | O=C(O)CCCNC(=O)CCn1nnc2ccccc2c1=O | inconclusive: 88.4%
39 | COc1cc(O)c(C(CCN2CCOCC2)c2ccc3c(c2)OCO3)c(OC)c1 (stereo not given) | inconclusive: 108%
40 | Cn1nccc1NC(=O)COCC(=O)O | inconclusive: 102%

Row | Structure (SMILES) | binding response (% of control)
41 | C/C(=N\N=C(N)N)c1ccc(C)c(C)c1 | inconclusive: 85.8%
42 | Cc1ccccc1C(=O)NNc1ccc(-c2csnn2)cc1 | inconclusive: 92.7%
43 | COc1ccc(NC(=O)C2(c3cccs3)CCOCC2)cc1 | inconclusive: 108%
44 | O=C(O)c1ccccc1C(=O)Nc1ccccc1[N+](=O)[O-] | inconclusive: 81.1%
45 | CCOC(=O)N/N=C\c1ccc(-c2cccc(C(F)(F)F)c2)o1 | inactive: 104%
46 | CCN(CC)C(=O)CSc1nnc2nnc3cc(C)ccc3n12 | inconclusive: 113%
47 | CCOCCN(C(=O)c1ccccc1Cl)c1cccc(C)c1C | inconclusive: 459%
48 | Cn1c(SCC(=O)N2CCCC2=O)nc2ccccc21 | inconclusive: -186%
49 | CC(C(=O)NCCS(=O)(=O)c1ccc(Cl)cc1)S(=O)(=O)c1ccccc1 (stereo not given) | inconclusive: 104%
50 | COc1cc(NC(=O)CSc2nccc(=O)[nH]2)c(C)cc1[N+](=O)[O-] | inconclusive: 85.7%
51 | S=C(Nc1ccc2nsnc2c1)N1CCCCC1 | inactive: 85.9%
52 | C=CCSc1nnc(NC(=O)COc2ccccc2)s1 | inconclusive: 116%
53 | C=CCN1C=C2C(=O)C(C)(OC(=O)c3ccc(OC)cc3)C(=O)C(c3ccco3)=C2C=C1CCCC (stereo not given) | inconclusive: 79.5%
54 | c1nc2sc3c(c2c2nnnn12)CCC3 | inactive: 100%
55 | NC1=NC[C@H](Cc2ccc(O)cc2)N1CC1CCCCC1 | inconclusive: 87.8%
56 | Cc1ccc(C(=O)N/C(=C\c2cn(C)c3ccccc23)C(=O)OCCN(C)C)cc1 | inconclusive: 28.4%
57 | COc1cccc(C(=O)Nc2cnn(C(C)C)c2)c1 | inconclusive: 104%
58 | Cn1nnc(NC(=S)NC(=O)Cc2ccccc2)n1 | inconclusive: 108%
59 | CC(=O)C(=Cc1ccc(C(=O)O)cc1)C(C)=O | inconclusive: 80.1%
60 | Cc1ccc(S(=O)(=O)N(C)C)cc1NC(=O)c1c(-c2c(F)cccc2Cl)noc1C | inconclusive: 98.3%

An excerpt of these results, tab-delimited:
Row	Structure (SMILES)	binding response (% of control)
48	Cn1c(SCC(=O)N2CCCC2=O)nc2ccccc21	inconclusive: -186%
49	CC(C(=O)NCCS(=O)(=O)c1ccc(Cl)cc1)S(=O)(=O)c1ccccc1 (stereo not given)	inconclusive: 104%
50	COc1cc(NC(=O)CSc2nccc(=O)[nH]2)c(C)cc1[N+](=O)[O-]	inconclusive: 85.7%
51	S=C(Nc1ccc2nsnc2c1)N1CCCCC1	inactive: 85.9%
52	C=CCSc1nnc(NC(=O)COc2ccccc2)s1	inconclusive: 116%
